Publication PMC12040169 (PLOS Biology, 2025)
The other results are listed elsewhere or left out.

These molecules were tested on T1, CTL2-GFP (C. trachomatis L2/434/Bu, GFP-expressing). Conditions: bulk GFP, single well; 28.5 h, 10 µM; inhibitor.
T1 construct: L2/434/Bu, GFP-expressing
Set-up: species or system HeLa; Intracellular C. trachomatis growth in HeLa cells, bulk GFP fluorescence relative to DMSO

SMILES	% of control remaining [%]
O=[N+]([O-])c1ccc(S(=O)(=O)NCCSCc2ccco2)cc1 [CBK267503]	95.9468
COc1ccc(-n2cc(-c3cccc(C(F)(F)F)c3)nn2)cc1OC [CBK112933]	92.6179
CC(=O)N1C[C@@H]2C[C@H](C1)c1ccc(NS(=O)(=O)c3cccc(F)c3)c(=O)n1C2 [CBK288710]	110.016
Cc1ccc(-c2nc3ncccc3o2)cc1NC(=O)c1ccc(-c2cccc([N+](=O)[O-])c2)o1 [CBK268548]	154.96
CN1C(=O)COc2ccccc2CCCC[C@@H]2[C@H]1CCCN2C(=O)CCCn1cncn1 [CBK292182]	118.668
CC(C)(C)OC(=O)N1CCC(Oc2ccccc2C#N)C1 (stereo not drawn) [CBK003039]	128.714
O=C(c1ccc2[nH]c(=O)[nH]c2c1)N1CCCC2(CCN(Cc3ccccc3)C2)C1 (stereo not drawn) [CBK137149]	97.5157
Cc1ccc(C(=O)NCCNS(=O)(=O)c2ccccc2)cc1 [CBK264145]	100
Cc1cc(=O)[nH]c2c1c(=O)[nH]n2C1CCCCCC1 [CBK288381]	182.85
COCCCN1C(=O)C(O)=C(C(=O)c2ccc(C)o2)C1c1ccc(OC)cc1 (stereo not drawn) [CBK264863]	130.59
O=C(Nc1ccc(N2CCNCC2)c2ccccc12)c1cccnc1 [CBK036336T]	122.777
COc1ccc(N2C(=O)CC(N3CCN(C4CC(=O)N(c5ccc(OC)cc5)C4=O)CC3)C2=O)cc1 (stereo not drawn) [CBK260907]	106.946
O=C1N[C@@H]2CCN(C(=O)CCn3ccccc3=O)C[C@@H]2CCCCCOc2ccccc21 [CBK292039]	126.166
COC(=O)[C@H]1CCc2ccccc2N1C(=O)C(C)C [CBK285474]	111.463
C[C@@H]1C[C@H](C)CN(C(C(=O)O)c2c[nH]c3ccccc23)C1 (stereo partly drawn) [CBK286868]	114.355
CCN1CCC(CC(=O)NCCn2ccnc2C)CC1 [CBK281984]	78.7435
Cc1nnc(Nc2ccc3c(c2)nc2n3CCN(C3CCCCC3)C2)c2ccccc12 [CBK268042]	149.953
CC(C)c1ccc(/C=C/C(=O)NCCC(N)=O)cc1 [CBK149646]	112.556
Cc1cc(COc2ncccc2C(F)(F)F)no1 [CBK115783]	107.221
C=CCn1c2cc(C)sc2c2cnn(CC(=O)NC(C)C)c(=O)c21 [CBK284150]	135.279

Two consecutive records already listed, quoted:
SMILES	% of control remaining [%]
CCN1CCC(CC(=O)NCCn2ccnc2C)CC1 [CBK281984]	78.7435
Cc1nnc(Nc2ccc3c(c2)nc2n3CCN(C3CCCCC3)C2)c2ccccc12 [CBK268042]	149.953

Additional structures follow:

SMILES	% of control remaining [%]
CC(=O)Nc1ccc(NCc2csc(C3CCCO3)n2)c(C(F)(F)F)c1 (stereo not drawn) [CBK304161]	82.142
COc1ccc(NC(=O)CSc2ncnc3c2oc2ccccc23)c(OC)c1 [CBK287395]	147.057
CC1=NN(c2ccc(Cl)cc2)C(=O)/C1=C\Nc1nnn[nH]1 [CBK262407]	100
C(#Cc1csc(COc2cncc(N3CCNCC3)n2)c1)c1ccccc1 [CBK200006G]	125.381
CC(=O)Nc1cccc(-c2nccnc2N[C@H](CO)C(C)C)c1 [CBK036611]	155.78
CCC1CCCCN1C(=O)c1nc2ccccc2s1 (stereo not drawn) [CBK076645]	116.386
COc1ccc(-c2cc(C(=O)Nc3ccc(F)c(Cl)c3)cnc2-c2cccc(C)c2)cc1 [CBK037488]	123.434
CCN1C(=O)CC2(C1=O)C(=O)N(CCc1cccs1)c1ccc(Cl)cc12 (stereo not drawn) [CBK075614]	132.329
CCCCNc1cc(N2CCN(C(=O)COC)CC2)nc(N)n1 [CBK304078]	113.66
Fc1ccccc1COc1cccc(CNCCN2CCOCC2)c1 [CBK278148C]	108.466
CC1CC(C)CN(Cc2csc(NC(=O)Cc3ccc(Cl)cc3)n2)C1 (stereo not drawn) [CBK306142]	48.2859
CC(C)(CO)CCCn1cncc1-c1cnn(-c2ccccc2)c1 [CBK281922]	101.357
Cc1nc2c([N+](=O)[O-])c3c(c([N+](=O)[O-])c2[nH]1)Nc1nonc1N3 [CBK261069]	99.3213
COc1cc(F)cc(OC2CCNCC2)c1NC(=O)c1coc2c1C(=O)CCC2 [CBK050351T]	133.647
COC(C)CN(C)Cc1c(C)[nH]c2ccc(F)cc12 (stereo not drawn) [CBK282035]	120.15
CC(C)Cc1ccc(S(=O)(=O)Nc2ccc3[nH]c(=O)[nH]c3c2)cc1 [CBK270131]	117.465
CCOC(=O)C1CCCN(C(=O)Cn2cnc(-c3cccs3)cc2=O)C1 (stereo not drawn) [CBK304210]	148.203
COc1cc(Nc2cncc(-c3ccc(O)cc3)n2)c(Cl)cc1C(=O)NCC1CCCO1 (stereo not drawn) [CBK126468]	107.553
CN(C)c1cccc(Nc2ccc(/C=C/c3ccccc3)cn2)c1 [CBK036984]	141.214
